Where cells or extracts were used, other partners may take part. For some assays here: The exact form of at least one protein or probe is not confirmed.
Assays:
[1] = target: nucleolin (cell surface) (UniProt P19338); assay: binding assay; settings: stated specificity for nucleolin and internalization of complex; no data shown; protein on the cell surface; protein details: endogenous, tumor cells; single-stranded DNA
[2] = target: nucleolin (106 kDa GRO-binding protein) (Homo sapiens) (UniProt P19338); assay: binding assay; settings: 3'-propylamino; Southwestern, single 106 kDa band; HEPES pH 7.9, 4 mM KCl, 3 mM MgCl2, 4 C; also EMSA and UV crosslink; protein in an extract; label: 5'-32P when used as probe; single-stranded DNA

The chains behind the UniProt entries cited, without tags or fusion partners. Residues count along the entry.
UniProt P19338, 2-710: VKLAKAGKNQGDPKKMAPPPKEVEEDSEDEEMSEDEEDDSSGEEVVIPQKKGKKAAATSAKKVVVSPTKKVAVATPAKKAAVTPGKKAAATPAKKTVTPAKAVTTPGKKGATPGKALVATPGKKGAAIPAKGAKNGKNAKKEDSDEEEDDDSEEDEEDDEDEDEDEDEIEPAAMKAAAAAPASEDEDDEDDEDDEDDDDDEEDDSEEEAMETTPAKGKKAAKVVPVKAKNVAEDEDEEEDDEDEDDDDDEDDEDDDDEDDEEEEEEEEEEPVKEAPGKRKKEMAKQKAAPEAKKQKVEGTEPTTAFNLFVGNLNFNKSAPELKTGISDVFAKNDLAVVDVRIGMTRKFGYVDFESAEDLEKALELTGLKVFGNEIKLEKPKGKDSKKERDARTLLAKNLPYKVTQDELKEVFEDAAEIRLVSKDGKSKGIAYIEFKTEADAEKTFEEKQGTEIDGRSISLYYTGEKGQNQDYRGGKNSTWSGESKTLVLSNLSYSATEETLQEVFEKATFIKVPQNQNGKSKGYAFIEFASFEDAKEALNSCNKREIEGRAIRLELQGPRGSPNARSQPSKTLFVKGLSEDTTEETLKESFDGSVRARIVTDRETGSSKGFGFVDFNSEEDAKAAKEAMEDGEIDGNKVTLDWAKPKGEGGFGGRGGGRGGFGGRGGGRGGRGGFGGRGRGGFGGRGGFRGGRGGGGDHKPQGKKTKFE

Sequence | binding result [1] | binding result [2]
GGTGGTGGTGGTTGTGGTGGTGGTGG [GRO26B] | binds | 
TTTGGTGGTGGTGGTTGTGGTGGTGGTGG [GRO29A] |  | binds

— patent publication US20110178161
